This is an account of results in article PMC5571287 (Antimicrobial Agents and Chemotherapy, 2017).

The test system of the series is HEp-2 cells.

Each structure is given as a SMILES string.

Usually CC50 stands for the concentration that lowers cell viability or growth by half. A low value points to harm at low concentration. Take `Cc1ccc(CCCO)c(NCc2ccc3nc(NCCCN4CCOCC4)n(Cc4nc(C)ccc4O)c3c2)c1` [TMC35315]: half-maximal cytotoxicity (CC50) was put at 7.94 µM.
